In patent publication EP1087941B9, “THIOLESTERS AND USES THEREOF” (THE UNITED STATES OF AMERICA, as represented by THE …, priority 1998, dated 1999):
For at least one compound, name, drawing or mass did not settle the structure.

Key:
[1] = system: HIV-1 NL4-3; assay: Virucidal (viral inactivation) assay on MAGI-CCR-5 cells; assay type: cell-based; conditions: result in words
Procedure: The cell-based p24 attachment assay was performed as described in Rice (1995) Science 270:1194-1197. Viral inactivation assays were carried out as described in Rice (1995) Science 270:1194-1197, and Turpin (1997) supra, with minor modifications. Briefly, MAGI-CCR-5 cells were plated (4 x 10^4 cells per well) in flat bottomed 2-cm well plates for 24 h, after which the culture media was removed and compound-treated virus was added. The virus used was obtained by transient transfection of pNL4-3 into HeLa cells yielding the replication competent NL4-3 virus. Virus containing supernatants were treated for 2 h at 37°C after which residual compound was removed by centrifugation (18,000 x g, 1h, 4°C). Virus pellets were resuspended and placed on the MAGI-CCR-5 monolayers and cultured for 48 h. Monolayers were fixed and stained with X-gal solution and blue cells counted.
NCp7 cross-linking is associated with viral inactivation. Whether the ability to crosslink the nucleocapsid protein, as determined by Western blotting, correlated with the ability to inactivate the viruses was tested in a virucidal assay. Virus stocks of HIV-1 NL4-3 were incubated with various thiolester compounds. The virus was obtained by transient transfection of a replication-competent pNL4-3 plasmid into HeLa cells. Residual thiolester was removed by centrifugation. […]

[2] = system: HIV-1RF; assay: XTT cytoprotection assay (antiviral activity); assay type: cell-based; conditions: result in words
Description: One exemplary means to determine antiviral activity is with CEM-SS cells and virus (e.g., HIV-1RF) (MOI = 0.01) using the XTT (2,3-bis[2-methoxy- 4-nitro-5-sulfophenyl] -5- [(phenylamino)carbonyl]-2H-tetrazolium hydroxide) cytoprotection assay, as described by Rice (1993) PNAS 90:9721-9724, and Rice (1997) Antimicrob. Agents Chemother. 41:419-426. Briefly, cells are infected with HIV-1RF (or other virus to be tested) in the presence of various dilutions of test compounds (thiolesters and controls). The cultures are incubated for seven days. During this time control cultures without protective compounds (i.e., compounds with anti-viral activity) replicate virus, induce syncytia, and result in about 90% cell death. The cell death is measured by XTT dye reduction. XTT is a soluble tetrazolimn dye that measures mitochondrial energy output, similar to MTT. Positive controls using dextran sulfate (an attachment inhibitor) or 3'-Azido -2'-3'-dideoxythymidine, AZT (a reverse transcriptase inhibitor) are added to each assay. Individual assays are done in duplicate using a sister plate method.
Effective antiviral concentrations providing 50% cytoprotection (EC50), and cellular growth inhibitory concentrations causing 50% cytotoxicity (IC50) are calculated.

[3] = biological target: T1, Virion-associated NCp7 proteins from cell-free HIV-1MN (Human immunodeficiency virus type 1 group M subtype B, UniProt P05888); assay: Intravirion NCp7 cross-linking, non-reducing Western blotting
T1 construct: an attack on the mature NCp7 retroviral zinc fingers in the cell-free virus; endogenous in cells
Procedure: The interaction of zinc finger inhibitors, such as the thiolesters of the invention, with cell-free virus can result in modification of intravirion NCp7 protein and loss of infectivity. Virion-associated NCp7 proteins from cell-free HIV-1MN were treated with thiolester compounds 44 and 45. They were also evaluated by non-reducing Western blotting using HIV-1 NCp7-specific antibodies. […] Cross-linking by compound 45 was due to formation of intermolecular disulfide bonds because reduction with 2-mercaptoethanol (β-ME) completely reversed the gel retardation.
Virion cross linking was performed as described by Rice (1995) Science 270:1194-1197 and Turpin (1997) Antiviral Chem. Chemother. 8:60-67. Briefly, highly purified HIV-1 MN (11.8 µg total protein) was incubated for 2 hour with concentrations of compound. Virions were concentrated and residual compound was removed by centrifugation (18,000 x g, 1 h, 4°C). The viral pellet was solubilized in 0.5 M Tris-HCl,(pH 6.8), 50% glycerol, 8% SDS and 0.4% bromophenol blue and proteins resolved by Western blotting. […] Resolved proteins were electroblotted on to polyvinylidene difluoride (PVDF) membranes, and HIV-1 specific proteins were detected using a mixture of goat anti- HIV-1 NCp7 and p24 or anti-NCp7 for virion proteins alone (a kind gift of L. E. Henderson, AIDS Vaccine Program NCI-FCRDC, Frederick, MD). […]

[4] = biological target: T2, recombinant HIV-1 NCp7 protein (Human immunodeficiency virus type 1 group M subtype B, UniProt P03347); assay: Trp37 zinc finger fluorescence (zinc ejection) assay; assay type: biochemical
T2 construct: within the nucleocapsid p7 (NCp7) protein portion of the polyprotein
Procedure: Zinc finger reactivity was measured using a Zn specific fluorochrome, TSQ, N-(6-methoxy-8-quinolyl) -p-toluenesulfonamide, assay or a Trp37 zinc finger fluorescence assay. Fluorescent measurements of the Trp37 residue in the C-terminal finger of recombinant HIV-1 NCp7 protein were performed as described by Rice (1995) Science 270:1194-1197; Rice (1997) Antimicrob. Agents Chemother. 41:419-426. Measurement of Zn ejection from both fingers was measured using the Zn-selective fluorchrome probe TSQ (Molecular Probes, Eugene OR) as described by Rice (1996) J. Med. Chem 39:3606-3616. Measurement of the ability of NCp7 to bind to a DNA oligomer, a 44 mer: […] […]
Changes in the intrinsic fluorescence of aromatic protein moieties are commonly used to monitor a reaction which involves a change in protein conformation. In the present invention, fluorescence can be used to monitor the loss of metal ion from a zinc finger, e.g., the loss of zinc from a CCHC retroviral zinc finger protein, after contact with a thiolester of the invention. The intrinsic fluorescence of Trp 37 in the second zinc finger of HIV-1 NC protein has been used to monitor nucleic acid binding and conformation of the zinc finger complex (see, Summers (1992) supra). […]

O=C(O)CCCC[n+]1ccccc1 [Compound 53, 5-pyridiniovaleric acid]
virucidal activity [1]: nor virucidal activity were detected | antiviral activity [2]: without antiviral activity | intravirion NCp7 cross-linking [3]: Neither intravirion cross-linkage of NCp7 | zinc finger reactivity / zinc ejection rate [4]: 4 RFU/min | Zinc Finger Reactivity RFU/ min ([4]; Table 6, average decrease in relative fluorescence units over 30 min): 4 RFU/ min
